Measured values reported in paper doi:10.1101/2024.04.01.586839.
Where two headings read alike, the source gives them in different places. No constants are given. Whether binding was seen depends on the method and setting. In cells and extracts the contact can be indirect. A yes stands for co-enrichment or nearness to the bait. Other partners may have been found. Sequences can lack the tags named with a protein.

Amino acid sequences for entries named in this document (tags omitted). Residues count along the entry.
UniProt Q9NYU2, residues 43-1555: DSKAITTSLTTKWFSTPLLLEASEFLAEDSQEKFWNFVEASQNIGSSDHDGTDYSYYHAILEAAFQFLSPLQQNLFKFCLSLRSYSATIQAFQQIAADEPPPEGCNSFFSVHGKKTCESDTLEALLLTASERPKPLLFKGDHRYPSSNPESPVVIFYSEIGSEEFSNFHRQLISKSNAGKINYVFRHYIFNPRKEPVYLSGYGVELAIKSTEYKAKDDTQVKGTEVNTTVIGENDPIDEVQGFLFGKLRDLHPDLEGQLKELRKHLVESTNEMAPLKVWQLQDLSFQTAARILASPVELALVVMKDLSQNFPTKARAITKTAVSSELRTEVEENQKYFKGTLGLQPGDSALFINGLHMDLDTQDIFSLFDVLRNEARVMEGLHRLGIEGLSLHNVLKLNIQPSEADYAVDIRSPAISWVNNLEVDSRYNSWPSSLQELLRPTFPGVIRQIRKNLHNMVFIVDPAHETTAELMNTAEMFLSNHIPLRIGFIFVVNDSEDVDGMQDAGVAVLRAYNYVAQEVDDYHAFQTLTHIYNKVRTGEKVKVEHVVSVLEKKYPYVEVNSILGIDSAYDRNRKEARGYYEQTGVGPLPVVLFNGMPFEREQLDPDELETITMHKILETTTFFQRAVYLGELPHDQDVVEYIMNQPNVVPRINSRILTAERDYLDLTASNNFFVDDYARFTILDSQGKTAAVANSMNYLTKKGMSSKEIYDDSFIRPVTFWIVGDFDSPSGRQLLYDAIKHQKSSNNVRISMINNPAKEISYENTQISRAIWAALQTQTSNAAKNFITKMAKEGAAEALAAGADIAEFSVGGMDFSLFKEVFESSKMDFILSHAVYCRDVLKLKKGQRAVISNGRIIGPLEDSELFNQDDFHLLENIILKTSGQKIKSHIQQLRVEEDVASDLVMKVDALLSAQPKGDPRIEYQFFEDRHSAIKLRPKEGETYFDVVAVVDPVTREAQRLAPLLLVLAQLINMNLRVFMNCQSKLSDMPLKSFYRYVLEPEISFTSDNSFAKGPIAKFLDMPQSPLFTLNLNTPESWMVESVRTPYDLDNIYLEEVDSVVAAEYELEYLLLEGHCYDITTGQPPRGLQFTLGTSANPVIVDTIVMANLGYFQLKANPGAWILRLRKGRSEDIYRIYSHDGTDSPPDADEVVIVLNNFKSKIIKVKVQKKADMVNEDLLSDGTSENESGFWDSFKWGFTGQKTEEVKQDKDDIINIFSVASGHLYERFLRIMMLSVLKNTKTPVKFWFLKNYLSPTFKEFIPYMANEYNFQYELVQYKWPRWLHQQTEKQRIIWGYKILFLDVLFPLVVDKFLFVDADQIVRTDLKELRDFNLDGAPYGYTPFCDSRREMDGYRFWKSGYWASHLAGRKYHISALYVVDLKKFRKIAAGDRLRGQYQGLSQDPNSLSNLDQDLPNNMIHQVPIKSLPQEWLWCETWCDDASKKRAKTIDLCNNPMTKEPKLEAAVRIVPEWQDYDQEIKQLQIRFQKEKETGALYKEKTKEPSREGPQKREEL
UniProt P07996, residues 19-1170: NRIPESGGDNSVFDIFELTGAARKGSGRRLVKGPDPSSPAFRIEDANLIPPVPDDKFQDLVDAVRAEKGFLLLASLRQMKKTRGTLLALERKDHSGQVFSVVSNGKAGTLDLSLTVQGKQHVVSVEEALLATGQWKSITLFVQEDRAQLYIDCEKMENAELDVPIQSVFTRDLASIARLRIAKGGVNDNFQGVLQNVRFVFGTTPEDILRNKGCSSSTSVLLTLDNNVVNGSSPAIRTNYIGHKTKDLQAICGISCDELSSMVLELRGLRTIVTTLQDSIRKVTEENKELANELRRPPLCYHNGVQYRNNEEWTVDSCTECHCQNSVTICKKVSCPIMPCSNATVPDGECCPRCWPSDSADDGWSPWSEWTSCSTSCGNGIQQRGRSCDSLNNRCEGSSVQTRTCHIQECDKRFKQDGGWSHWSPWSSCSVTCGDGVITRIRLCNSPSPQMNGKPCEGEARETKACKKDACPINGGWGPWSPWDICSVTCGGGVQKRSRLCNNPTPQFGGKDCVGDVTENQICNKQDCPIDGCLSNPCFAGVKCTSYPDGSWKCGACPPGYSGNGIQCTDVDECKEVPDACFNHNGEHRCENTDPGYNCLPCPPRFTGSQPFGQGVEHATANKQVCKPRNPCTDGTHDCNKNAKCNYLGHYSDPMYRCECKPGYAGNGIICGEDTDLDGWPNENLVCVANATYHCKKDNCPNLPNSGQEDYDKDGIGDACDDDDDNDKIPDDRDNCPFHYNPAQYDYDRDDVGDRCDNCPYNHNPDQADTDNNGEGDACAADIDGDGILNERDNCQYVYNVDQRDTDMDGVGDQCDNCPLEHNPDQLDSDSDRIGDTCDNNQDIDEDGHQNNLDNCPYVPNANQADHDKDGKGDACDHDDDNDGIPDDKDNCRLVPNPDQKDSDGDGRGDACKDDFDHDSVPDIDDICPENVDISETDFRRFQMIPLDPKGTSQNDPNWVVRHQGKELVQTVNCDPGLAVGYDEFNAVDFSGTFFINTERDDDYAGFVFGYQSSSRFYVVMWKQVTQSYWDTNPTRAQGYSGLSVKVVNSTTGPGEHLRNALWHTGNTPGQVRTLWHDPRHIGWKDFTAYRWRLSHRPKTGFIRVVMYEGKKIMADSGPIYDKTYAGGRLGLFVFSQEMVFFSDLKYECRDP
UniProt P68104: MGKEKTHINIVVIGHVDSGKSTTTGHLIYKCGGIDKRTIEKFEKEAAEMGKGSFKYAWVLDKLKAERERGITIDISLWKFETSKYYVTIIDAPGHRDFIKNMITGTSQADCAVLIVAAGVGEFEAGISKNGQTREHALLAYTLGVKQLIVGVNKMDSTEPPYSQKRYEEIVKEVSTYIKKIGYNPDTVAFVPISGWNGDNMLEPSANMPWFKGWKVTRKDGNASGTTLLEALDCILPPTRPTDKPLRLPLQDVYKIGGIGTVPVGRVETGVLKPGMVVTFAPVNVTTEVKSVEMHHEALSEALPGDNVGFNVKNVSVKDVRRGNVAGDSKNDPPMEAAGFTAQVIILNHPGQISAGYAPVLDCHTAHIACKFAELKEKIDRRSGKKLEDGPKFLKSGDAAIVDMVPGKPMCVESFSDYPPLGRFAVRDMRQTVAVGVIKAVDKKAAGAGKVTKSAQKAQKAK
UniProt P11021, residues 19-654: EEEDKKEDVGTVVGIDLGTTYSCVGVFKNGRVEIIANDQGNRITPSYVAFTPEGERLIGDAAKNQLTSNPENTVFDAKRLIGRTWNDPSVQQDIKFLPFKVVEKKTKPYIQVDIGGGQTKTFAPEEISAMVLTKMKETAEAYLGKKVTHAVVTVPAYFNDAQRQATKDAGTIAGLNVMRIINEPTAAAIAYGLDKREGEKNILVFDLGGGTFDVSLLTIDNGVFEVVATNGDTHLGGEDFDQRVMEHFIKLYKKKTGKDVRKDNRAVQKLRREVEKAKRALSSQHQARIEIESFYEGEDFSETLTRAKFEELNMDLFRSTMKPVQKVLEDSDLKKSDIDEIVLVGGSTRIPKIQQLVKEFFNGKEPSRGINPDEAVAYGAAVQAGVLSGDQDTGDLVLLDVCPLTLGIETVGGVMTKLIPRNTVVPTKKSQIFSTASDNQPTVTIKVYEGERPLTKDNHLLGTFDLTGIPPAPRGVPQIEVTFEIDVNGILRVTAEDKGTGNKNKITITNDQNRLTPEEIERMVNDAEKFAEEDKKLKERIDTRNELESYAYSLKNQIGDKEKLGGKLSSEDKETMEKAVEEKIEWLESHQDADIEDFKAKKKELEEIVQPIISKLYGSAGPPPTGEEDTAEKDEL
UniProt P0DMV8: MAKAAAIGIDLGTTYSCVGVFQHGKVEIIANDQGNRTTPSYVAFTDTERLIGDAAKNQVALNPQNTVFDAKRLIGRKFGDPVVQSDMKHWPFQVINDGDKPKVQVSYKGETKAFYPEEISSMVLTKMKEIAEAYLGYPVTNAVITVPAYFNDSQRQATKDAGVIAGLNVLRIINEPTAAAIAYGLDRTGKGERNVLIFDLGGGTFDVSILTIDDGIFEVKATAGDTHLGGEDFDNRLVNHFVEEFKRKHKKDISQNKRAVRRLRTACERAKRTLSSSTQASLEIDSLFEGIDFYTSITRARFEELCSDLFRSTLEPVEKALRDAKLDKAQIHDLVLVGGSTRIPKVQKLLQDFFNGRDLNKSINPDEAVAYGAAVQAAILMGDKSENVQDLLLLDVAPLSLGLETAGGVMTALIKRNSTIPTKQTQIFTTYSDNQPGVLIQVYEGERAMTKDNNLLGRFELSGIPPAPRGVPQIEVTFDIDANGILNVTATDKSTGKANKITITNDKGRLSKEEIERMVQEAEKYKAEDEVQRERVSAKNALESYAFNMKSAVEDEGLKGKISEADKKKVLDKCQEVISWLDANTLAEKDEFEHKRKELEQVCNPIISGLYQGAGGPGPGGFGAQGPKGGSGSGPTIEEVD

Tests used:
[1] = target: T1, HA-tagged human HHIP (hedgehog interacting protein) (human) (UniProt Q96QV1); assay: affinity purification with mass spectrometry
T1 sequence: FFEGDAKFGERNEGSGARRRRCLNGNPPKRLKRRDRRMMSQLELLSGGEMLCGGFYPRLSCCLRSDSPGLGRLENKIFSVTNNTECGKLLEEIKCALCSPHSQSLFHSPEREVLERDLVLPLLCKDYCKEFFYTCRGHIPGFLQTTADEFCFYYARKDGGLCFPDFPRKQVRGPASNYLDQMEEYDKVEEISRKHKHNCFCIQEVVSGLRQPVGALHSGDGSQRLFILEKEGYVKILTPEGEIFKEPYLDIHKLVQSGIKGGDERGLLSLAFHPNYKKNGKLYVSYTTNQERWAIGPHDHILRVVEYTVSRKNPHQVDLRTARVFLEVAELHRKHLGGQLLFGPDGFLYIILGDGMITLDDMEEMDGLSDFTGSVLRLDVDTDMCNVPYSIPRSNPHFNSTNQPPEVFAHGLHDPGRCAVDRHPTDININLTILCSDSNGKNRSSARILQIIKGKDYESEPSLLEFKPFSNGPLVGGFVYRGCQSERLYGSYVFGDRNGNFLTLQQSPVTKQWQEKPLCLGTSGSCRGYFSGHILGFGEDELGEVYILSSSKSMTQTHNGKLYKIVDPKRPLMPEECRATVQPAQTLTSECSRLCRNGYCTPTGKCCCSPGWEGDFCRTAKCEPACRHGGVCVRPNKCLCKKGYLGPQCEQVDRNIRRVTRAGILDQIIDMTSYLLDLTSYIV

[2] = target: T1, HA-tagged human HHIP (hedgehog interacting protein) (human); assay: affinity purification with mass spectrometry; remark: listed apart in the source

In the case of UGGT1 (from UniProt Q9NYU2 43-1555), the binding [1] is reported as “binds” and the binding [2] is reported as “binds”.
For “Thrombospondin 1 (THBS1) (from UniProt P07996 19-1170)”, the binding [2] was “binds”.
In the case of EEF1A1 (from UniProt P68104 1-462), the binding [2] is reported as “binds”.
With HSPA5 (from UniProt P11021 19-654) the binding [1] was “binds” and the binding [2] was “binds”.
In the case of TP53 (from UniProt P04637 1-393), the binding [2] is reported as “binds”.
In the case of HSPA1A (from UniProt P0DMV8 1-641), the binding [2] is reported as “binds”.
